# From PubChem BioAssay AID192 (DTP/NCI, 2004)
# The list shows only some results of the screen, not a fair sample: it covers a few groups of compounds. Not every dose and run of a compound is shown. T/C: endpoint of the treated group in % of that of the vehicle group. Some entries give survivors of the animals treated and no T/C: the source holds a T/C of zero for them, seemingly a mark for toxic or unscored doses. Some doses without a T/C left all or most animals alive at the check, yet need not have been tolerated: the source hardly ever lists a survival T/C far under the control, and the zero likely stands for such cases as well. Survivors were counted at the toxicity check, usually on the fifth day, unless a day is given; later deaths do not show. Schedule codes are those of the source, taken here to give the interval after Q, in days (D) or hours (H), and the number of doses after X. Some entries hold several experiments; their values stand side by side, smallest first. Where survival is the endpoint, this PubChem deposit counts one and a half times the control or more as active, and values a quarter to a half above the control carry no call in these data; other NCI protocols may use other cut-offs. Some entries show no survivor count and are marked so; the dose need not have been tolerated. Signs of the kind (2×) give the number of equal values in this list. Some T/C values carry the count of animals alive at the toxicity check (mostly the fifth day); without a count or a note in brackets, all were alive then.
# Tested on: BDF1 mice, B16 melanoma ip, median survival T/C
# Assay: NCI In Vivo Anticancer Drug Screen. Data for tumor model B16 Melanoma (intraperitoneal) in B6D2F1 (BDF1) mice
# Conditions: T/C endpoint: median survival time, schedule: Q01DX009 (ip), higher T/C = longer survival
# Procedure: The antitumor activity of compounds was measured in mice bearing transplantable tumors. Survival or tumor size were measured and the results are expressed as the measurement made in the treated group (T) divided by the measurement made in the vehicle treated control group (C). The tumor model used in this assay is B16 Melanoma (intraperitoneal) in B6D2F1 (BDF1) mice
# [1] = dose: 3.0 mg/kg/injection, vehicle: saline with Tween-80
# [2] = dose: 3.12 mg/kg/injection, vehicle: Klucel (hydroxypropylcellulose) (HPC)
# [3] = dose: 6.0 mg/kg/injection, vehicle: saline with Tween-80
# [4] = dose: 12.0 mg/kg/injection, vehicle: saline with Tween-80
# [5] = dose: 50.0 mg/kg/injection, vehicle: Klucel (hydroxypropylcellulose) (HPC)
# [6] = dose: 12.5 mg/kg/injection, vehicle: Klucel (hydroxypropylcellulose) (HPC)
# [7] = dose: 25.0 mg/kg/injection, vehicle: Klucel (hydroxypropylcellulose) (HPC)
smiles,measurement,setting,value
ClCCN(CCCl)c1ccccc1,T/C,"dose: 1.56 mg/kg/injection, vehicle: Klucel (hydroxypropylcellulose) (HPC), evaluated on day 60",107 % of control
same,T/C,"dose: 1.56 mg/kg/injection, vehicle: Klucel (hydroxypropylcellulose) (HPC), evaluation day not shown",96 % of control [survivor count not shown]
same,T/C,[1],112 % of control [survivor count not shown]
same,T/C,[2],107 and 108 % of control
same,T/C,"dose: 3.13 mg/kg/injection, vehicle: Klucel (hydroxypropylcellulose) (HPC), evaluated on day 60",101 % of control
same,T/C,"dose: 3.13 mg/kg/injection, vehicle: Klucel (hydroxypropylcellulose) (HPC), evaluation day not shown",97 % of control [survivor count not shown]
same,T/C,[3],119 % of control [survivor count not shown]
same,T/C,"dose: 6.25 mg/kg/injection, vehicle: Klucel (hydroxypropylcellulose) (HPC), evaluated on day 60","110, 119, 122 % of control"
same,T/C,"dose: 6.25 mg/kg/injection, vehicle: Klucel (hydroxypropylcellulose) (HPC), evaluation day not shown",104 % of control [survivor count not shown]
same,T/C,"dose: 6.25 mg/kg/injection, vehicle: saline with Tween-80",108 % of control [survivor count not shown] (2×)
same,T/C,[4],128 % of control [survivor count not shown]
same,T/C,"dose: 12.5 mg/kg/injection, vehicle: Klucel (hydroxypropylcellulose) (HPC), evaluated on day 60","123, 136, 159 % of control"
same,T/C,"dose: 12.5 mg/kg/injection, vehicle: Klucel (hydroxypropylcellulose) (HPC), evaluation day not shown",110 % of control [survivor count not shown]
same,T/C,"dose: 12.5 mg/kg/injection, vehicle: saline with Tween-80",125 [survivor count not shown] and 129 % of control [survivor count not shown]
same,T/C,"dose: 24.0 mg/kg/injection, vehicle: saline with Tween-80",102 % of control [survivor count not shown]
same,T/C,"dose: 25.0 mg/kg/injection, vehicle: Klucel (hydroxypropylcellulose) (HPC), evaluated on day 60","144 [9 of 10 alive], 154, 159 % of control"
same,T/C,"dose: 25.0 mg/kg/injection, vehicle: Klucel (hydroxypropylcellulose) (HPC), evaluation day not shown",93 % of control [survivor count not shown]
same,T/C,"dose: 25.0 mg/kg/injection, vehicle: saline with Tween-80","102 [survivor count not shown], 112 [survivor count not shown], 133 % of control [survivor count not shown]"
same,T/C,"dose: 44.0 mg/kg/injection, vehicle: saline with Tween-80",103 % of control [survivor count not shown]
same,survivor count,[5],9 of 10 and 10 of 10
same,T/C,"dose: 50.0 mg/kg/injection, vehicle: saline with Tween-80",116 [survivor count not shown] and 134 % of control [survivor count not shown]
same,T/C,"dose: 100.0 mg/kg/injection, vehicle: saline with Tween-80",150 % of control [survivor count not shown]
ClCCN(CCCl)c1ccc(Cl)cc1,T/C,[6],95 % of control [survivor count not shown]
same,T/C,[7],93 % of control [survivor count not shown]
same,T/C,[5],97 % of control [survivor count not shown]
same,T/C,"dose: 100.0 mg/kg/injection, vehicle: Klucel (hydroxypropylcellulose) (HPC)",93 % of control [survivor count not shown]
same,T/C,"dose: 200.0 mg/kg/injection, vehicle: Klucel (hydroxypropylcellulose) (HPC)",102 % of control [survivor count not shown]
same,T/C,"dose: 400.0 mg/kg/injection, vehicle: Klucel (hydroxypropylcellulose) (HPC)",108 % of control [survivor count not shown]
COc1ccc(C(=O)O)cc1N(CCCl)CCCl,T/C,"dose: 0.25 mg/kg/injection, vehicle: Klucel (hydroxypropylcellulose) (HPC)",107 % of control [survivor count not shown]
same,T/C,"dose: 0.5 mg/kg/injection, vehicle: Klucel (hydroxypropylcellulose) (HPC)",107 % of control [survivor count not shown]
same,T/C,"dose: 1.0 mg/kg/injection, vehicle: Klucel (hydroxypropylcellulose) (HPC)",109 [survivor count not shown] and 117 % of control [survivor count not shown]
same,T/C,"dose: 1.0 mg/kg/injection, vehicle: saline with Tween-80",121 [survivor count not shown] and 169 % of control [survivor count not shown]
same,T/C,"dose: 2.0 mg/kg/injection, vehicle: Klucel (hydroxypropylcellulose) (HPC)",117 [survivor count not shown] and 144 % of control [survivor count not shown]
same,T/C,"dose: 2.0 mg/kg/injection, vehicle: saline with Tween-80",145 [survivor count not shown] and 153 % of control [survivor count not shown]
same,T/C,"dose: 4.0 mg/kg/injection, vehicle: Klucel (hydroxypropylcellulose) (HPC)",117 [survivor count not shown] and 160 % of control [survivor count not shown]
same,T/C,"dose: 4.0 mg/kg/injection, vehicle: saline with Tween-80",127 [survivor count not shown] and 158 % of control [survivor count not shown]
same,T/C,"dose: 8.0 mg/kg/injection, vehicle: saline with Tween-80",163 [survivor count not shown] and 243 % of control [survivor count not shown]
COc1cc(CN(CCCl)CCBr)cc(OC)c1,T/C,"dose: 0.75 mg/kg/injection, vehicle: saline with Tween-80",103 % of control [survivor count not shown]
same,T/C,"dose: 0.78 mg/kg/injection, vehicle: carboxymethylcellulose (CMC)",109 % of control [survivor count not shown]
same,T/C,"dose: 1.5 mg/kg/injection, vehicle: Klucel (hydroxypropylcellulose) (HPC)",111 % of control [survivor count not shown]
same,T/C,"dose: 1.5 mg/kg/injection, vehicle: saline with Tween-80",111 % of control [survivor count not shown]
same,T/C,"dose: 1.56 mg/kg/injection, vehicle: carboxymethylcellulose (CMC)",124 % of control [survivor count not shown]
same,T/C,"dose: 2.7 mg/kg/injection, vehicle: saline",116 % of control [survivor count not shown]
same,T/C,"dose: 3.0 mg/kg/injection, vehicle: Klucel (hydroxypropylcellulose) (HPC)",117 % of control [survivor count not shown]
same,T/C,[1],118 % of control [survivor count not shown]
same,T/C,[2],146 % of control [survivor count not shown]
same,T/C,"dose: 3.12 mg/kg/injection, vehicle: carboxymethylcellulose (CMC)",125 % of control [survivor count not shown]
same,T/C,"dose: 4.0 mg/kg/injection, vehicle: saline",127 % of control [survivor count not shown]
same,T/C,"dose: 6.0 mg/kg/injection, vehicle: Klucel (hydroxypropylcellulose) (HPC)",116 % of control [survivor count not shown]
same,T/C,[3],138 % of control [survivor count not shown]
same,T/C,"dose: 6.0 mg/kg/injection, vehicle: saline",133 % of control [survivor count not shown]
same,T/C,"dose: 9.0 mg/kg/injection, vehicle: saline",142 % of control [survivor count not shown]
same,T/C,[4],121 % of control [survivor count not shown]
Cc1ccc(N(CCCl)CCCl)cc1,T/C,[2],101 % of control [survivor count not shown]
same,T/C,"dose: 6.25 mg/kg/injection, vehicle: Klucel (hydroxypropylcellulose) (HPC)",116 % of control [survivor count not shown]
same,T/C,[6],110 % of control [survivor count not shown]
same,T/C,[7],121 % of control [survivor count not shown]
same,T/C,[5],137 % of control [survivor count not shown]
